Data reported in PMC8167170.
No constants are given. Whether binding was seen depends on the method and setting. Binding seen in cells or lysates may run through a third protein. Some results given as binding are weak or reduced against the parent protein; the word gives no strength. For some assays here: Where a sequence is shown, tags or fusion partners need not be part of it.

Chains of the proteins cited; added tags and fusions are not shown.
UniProt P47239: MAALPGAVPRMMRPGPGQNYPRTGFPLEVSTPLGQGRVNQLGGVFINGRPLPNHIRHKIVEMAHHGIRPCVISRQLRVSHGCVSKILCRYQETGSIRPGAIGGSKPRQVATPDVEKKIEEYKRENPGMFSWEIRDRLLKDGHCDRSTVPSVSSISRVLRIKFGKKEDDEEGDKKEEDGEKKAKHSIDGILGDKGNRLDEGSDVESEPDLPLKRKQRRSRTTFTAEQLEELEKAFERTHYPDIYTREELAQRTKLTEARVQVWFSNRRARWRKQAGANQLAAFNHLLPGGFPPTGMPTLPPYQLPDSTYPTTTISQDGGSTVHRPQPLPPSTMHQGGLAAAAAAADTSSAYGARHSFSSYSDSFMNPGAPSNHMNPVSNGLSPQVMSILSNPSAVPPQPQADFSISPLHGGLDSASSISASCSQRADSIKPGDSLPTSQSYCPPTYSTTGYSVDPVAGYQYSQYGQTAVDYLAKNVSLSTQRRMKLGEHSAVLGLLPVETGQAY
UniProt Q91X20: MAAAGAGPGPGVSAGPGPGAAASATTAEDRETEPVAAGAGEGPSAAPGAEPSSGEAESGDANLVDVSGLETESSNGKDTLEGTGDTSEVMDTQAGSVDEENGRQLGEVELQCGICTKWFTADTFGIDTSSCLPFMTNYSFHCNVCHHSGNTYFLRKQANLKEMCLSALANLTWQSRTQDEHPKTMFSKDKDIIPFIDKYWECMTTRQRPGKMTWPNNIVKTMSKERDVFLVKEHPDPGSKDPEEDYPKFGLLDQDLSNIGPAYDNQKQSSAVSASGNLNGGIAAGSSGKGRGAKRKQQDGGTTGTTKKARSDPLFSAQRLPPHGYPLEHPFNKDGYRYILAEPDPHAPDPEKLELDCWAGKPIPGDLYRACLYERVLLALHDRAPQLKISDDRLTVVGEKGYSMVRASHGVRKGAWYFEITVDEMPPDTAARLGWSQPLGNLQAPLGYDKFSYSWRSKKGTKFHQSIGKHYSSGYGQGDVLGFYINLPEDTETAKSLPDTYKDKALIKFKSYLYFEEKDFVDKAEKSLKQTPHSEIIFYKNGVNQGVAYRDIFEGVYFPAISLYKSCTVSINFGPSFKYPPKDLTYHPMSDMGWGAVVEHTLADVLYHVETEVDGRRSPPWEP

Columns and labels:
[1] = molecular target: PAX7 (wild type, construct of Supplementary Fig. 1) (mouse) (UniProt P47239); test: co-IP; Supplementary Fig. 1 (not shown), listed among the co-immunoprecipitations and immunoblots; WT against K105/K193 mutant PAX7 with CARM1 or ASH2L; set-up not told
[2] = molecular target: FLAG-PAX7 (mouse) (UniProt P47239); test: co-IP; C2C12 cells transfected with tagged plasmids, collected 48 h later; Triton lysis buffer (50 mM Tris pH 7.5, 150 mM NaCl, 2 mM MgCl2, 0.5 mM EDTA, 0.5% Triton X-100); primary antibody overnight at 4 °C, Protein A/G magnetic beads 2 h; IP done in both directions; western blot

Row | Molecule | binding [1] | binding [2]
1 | ASH2L (from UniProt Q91X20 1-623) | binds | –
2 | HA-MYST1 (enzyme, UniProt Q9D1P2 1-458) MAAQGATAAVAATTSGTVGEGEPGPGENAAVEGPARSPGRVSPPTPARGEPEVTVEIGETYLCRRPDSTWHSAEVIQSRVNDQEGREEFYVHYVGFNRRLDEWVDKNRLALTKTVKDAVQKNSEKYLSELAEQPERKITRNQKRKHDEINHVQKTYAEMDPTTAALEKEHEAITKVKYVDKIHIGNYEIDAWYFSPFPEDYGKQPKLWLCEYCLKYMKFEKSYRFHLGQCQWRQPPGKEIYRKSNISVYEVDGKDHKIYCQNLCLLAKLFLDHKTLYFDVEPFVFYILTEVDRQGAHIVGYFSKEKESPDGNNVACILTLPPYQRRGYGKFLIAFSYELSKLESTVGSPEKPLSDLGKLSYRSYWSWVLLEILRDFRGTLSIKDLSQMTSITQNDIISTLQSLNMVKYWKGQHVICVTPKLVEEHLKSAQYKKPPITVDSVCLKWAPPKHKQVKLSKK | – | binds
